Measurements published in PubChem BioAssay AID540276 (National Center for Advancing Translational Sciences (NCATS), 2011).
Hit rate of the full screen: of about 300,000 compounds, about 5,400 (1.8%) were called active. The inconclusive results got no clear call from the source; some entries with a clear call stand among them for comparison. Calls come from the whole dose curve; tested in HEK293 cells. Potencies of inconclusive entries are doubtful fits and often do not repeat.
% is set by controls: 0 for no effect and ±100 for the full control effect; potency is the fitted concentration of half-maximal effect.

Assay: qHTS for inhibitors of binding or entry into cells for Marburg Virus
Settings: Marburg virus pseudotyped entry inhibition, cell reporter; activity change, negative = inhibition: at 37.8 µM (top of the series) unless noted
For Cc1ccc(C(=O)OCC(=O)c2ccccc2)cc1, the “activity change, negative = inhibition” value was inactive: -27.2%. With CC(C)[C@@H](NC(=O)C1CCC(CNC(=O)[C@H](Cc2ccccc2)NC(=O)OC(C)(C)C)CC1)C(=O)O (stereo partly drawn) the Potency was inconclusive: 3.55 µM [inhibitor, single point]. In the case of CCOc1ccccc1OCCC(=O)Nc1ccc(F)c(Cl)c1, the Potency is reported as inconclusive: 35.5 µM [inhibitor, single point]. In the case of CC(=O)c1cc(C(=O)Nc2ccccc2C(=O)O)oc1C, the Potency is reported as inconclusive: 0.562 µM [inhibitor, full curve, poor fit]. With O=C(c1ccncc1)c1ccc(NC(=O)c2cccs2)cc1 the “activity change, negative = inhibition” value was inactive: 5.18% [at 46.1 µM]. In the case of CCCC(=O)NC1=C(Cl)C(=O)c2ccccc2C1=O, the Potency is reported as inconclusive: 10 µM [inhibitor, partial curve, poor fit]. With Cc1ccc(C(=O)/C=C/c2ccc(F)cc2)o1 the Potency was inconclusive: 5.62 µM [inhibitor, single point]. With O=C(/C=C/c1ccc(Cl)cc1)N(c1ccccn1)C1CCCCC1 the Potency was inconclusive: 0.112 µM [inhibitor, full curve, poor fit]. In the case of Nn1cnc2scc(-c3ccco3)c2c1=O, the Potency is reported as inconclusive: 3.16 µM [inhibitor, partial curve, poor fit]. With Cc1ccc(C(=O)Nc2ccc(N3CCN(C(=O)c4ccco4)CC3)cc2)cc1 the “activity change, negative = inhibition” value was inactive: 1.49% [at 46.1 µM]. In the case of CCCCCOC(=O)C1=C(C)NC(=O)NC1c1ccc2c(c1)OCO2 (stereo not drawn), the Potency is reported as inconclusive: 35.5 µM [inhibitor, single point]. For C=C1CC2C(CCC3(C)C2CCC3(O)C(C)=O)C2(C)CCC(=O)C=C12 (stereo not drawn), the Potency was inconclusive: 22.4 µM [inhibitor, single point]. In the case of COc1ccc(N(CC(=O)NCc2cccnc2)S(=O)(=O)c2ccc(C)c([N+](=O)[O-])c2)cc1, the “activity change, negative = inhibition” value is reported as inactive: -4.72% [at 46.1 µM]. For Cc1cccc(NC(=S)c2nc3ccccc3s2)c1, the “activity change, negative = inhibition” value was inactive: -13.4%. In the case of CCOc1ccc2[nH]c(=O)c(CN(CCCN3CCOCC3)Cc3nnnn3Cc3ccc(OC)cc3)cc2c1, the Potency is reported as inconclusive: 35.5 µM [inhibitor, single point]. With CN(C)S(=O)(=O)c1ccc(C(=O)Nc2nnc(SCc3cccc4ccccc34)s2)cc1 the “activity change, negative = inhibition” value was inactive: -4.78%. With COc1cccc(CNc2cnc3ccccc3c2)c1O the Potency was inconclusive: 29.1 µM [inhibitor, single point]. With CCNS(=O)(=O)c1ccc(NC(=O)CSc2nc(-c3ccco3)cc(C(F)(F)F)n2)cc1 the Potency was inconclusive: 10 µM [inhibitor, partial curve, poor fit]. With COCC[N+]1(C)CCCCC1 the Potency was inconclusive: 3.16 µM [inhibitor, single point]. With CCC(C)(C)NC(=O)/C=C/c1cnc2ccccc2n1 the Potency was inconclusive: 2.31 µM [activator, partial curve, poor fit]. With C=CCNC(=O)/C(C#N)=C/c1c(C)nn(-c2ccccc2)c1Cl the Potency was active: 7.94 µM. With COc1ccccc1OCC(=O)Nc1ccc(O)cc1C(=O)O the Potency was inconclusive: 0.891 µM [activator, full curve, poor fit]. For Cc1ccc(NC(=O)CSc2nnc([C@@H](N)Cc3c[nH]c4ccccc34)o2)c(C)c1, the Potency was inconclusive: 8.2 µM [inhibitor, partial curve]. With CN(c1ccccc1)S(=O)(=O)c1cccc(C(=O)Nc2ccc3c(c2)CCC3)c1 the “activity change, negative = inhibition” value was inactive: 15.8%. In the case of COc1ccccc1CNC(=O)CSc1ccc(-c2cccc([N+](=O)[O-])c2)nn1, the “activity change, negative = inhibition” value is reported as inactive: -0.979% [at 46.1 µM]. For O=C(Nc1cccnc1)Nc1ccc2c(c1)OCO2, the “activity change, negative = inhibition” value was inactive: 3.5%. With C=CCOc1ccc(CNC(C)(C)C)cc1OC the “activity change, negative = inhibition” value was inactive: -9.92%. With Cc1ccc(N2C(=O)[C@@H]3[C@H](C2=O)C2CCCN2[C@@H]3C(=O)c2ccccc2)cc1 (stereo partly drawn) the Potency was “inactive”. With CCCOc1ccc(CNC(=O)CCCn2ncn3c(cc4sc(CC)cc43)c2=O)cc1 the Potency was inconclusive: 3.16 µM [inhibitor, partial curve, poor fit]. With Cc1c(Cl)cccc1NC(=S)N1CCC(N(C)CC2CCCO2)CC1 (stereo not drawn) the Potency was inconclusive: 35.5 µM [inhibitor, single point]. In the case of Cc1ccc(-c2csc(NC(=O)CCNC(=O)c3ccco3)n2)cc1, the Potency is reported as inconclusive: 3.55 µM [activator, partial curve, poor fit]. In the case of O=C(N/N=C/c1ccc(O)cc1)c1csc2ccccc12, the Potency is reported as inconclusive: 2.82 µM [activator, partial curve, poor fit]. With CCOC(=O)c1sc(N2C(=O)c3oc4cc(C)c(C)cc4c(=O)c3C2c2cccc(O)c2)nc1C (stereo not drawn) the Potency was inconclusive: 6.31 µM [activator, single point]. For Cc1cccc(CC(c2cccc(C)c2)N(C)C)c1 (stereo not drawn), the Potency was inconclusive: 0.794 µM [inhibitor, full curve, poor fit]. For Cc1ccc(O)c(C(=O)c2cnc3c(c2)c(-c2ccc(F)cc2)c(C#N)c(=O)n3C)c1, the Potency was inconclusive: 22.4 µM [inhibitor, single point]. In the case of Cc1cc(C(=O)CSc2ccccc2)cc(C)c1O, the Potency is reported as inconclusive: 35.5 µM [inhibitor, single point]. With CCSc1nnc(NC(=O)C2CC2c2ccccc2)s1 (stereo not drawn) the Potency was inconclusive: 17.8 µM [activator, single point]. For Cc1ccccc1CSc1ccc(S(=O)(=O)N2CCCC2)cn1, the Potency was inconclusive: 1.78 µM [inhibitor, partial curve, poor fit]. In the case of O=C(N/N=C/c1ccc(Cl)cc1)Nc1ccccc1, the Potency is reported as inconclusive: 25.9 µM [activator, single point]. With COC(=O)c1cc(NC(=O)CCc2c(C)nc3c4c(C)cc(C)nc4nn3c2C)cc(C(=O)OC)c1 the Potency was inconclusive: 5.62 µM [activator, single point]. With O=C(NC1=NCCS1)c1ccc(-c2ccc(Cl)cc2)o1 the “activity change, negative = inhibition” value was inactive: -1.94%. With O=c1cc(CN2CCN(Cc3ccccc3)CC2)c2ccc(O)c(O)c2o1 the Potency was inconclusive: 12.6 µM [inhibitor, single point]. With Cc1ccc(C(C(=O)NC2CCCCC2)N(C(=O)Cc2c[nH]c3ccccc23)c2ccccc2C)o1 (stereo not drawn) the Potency was inconclusive: 11.2 µM [inhibitor, single point].
